For the assay, the target named is T1, KH-type splicing regulatory protein (KSRP) (human (endogenous in Huh7)) (UniProt Q92945).
T1 sequence: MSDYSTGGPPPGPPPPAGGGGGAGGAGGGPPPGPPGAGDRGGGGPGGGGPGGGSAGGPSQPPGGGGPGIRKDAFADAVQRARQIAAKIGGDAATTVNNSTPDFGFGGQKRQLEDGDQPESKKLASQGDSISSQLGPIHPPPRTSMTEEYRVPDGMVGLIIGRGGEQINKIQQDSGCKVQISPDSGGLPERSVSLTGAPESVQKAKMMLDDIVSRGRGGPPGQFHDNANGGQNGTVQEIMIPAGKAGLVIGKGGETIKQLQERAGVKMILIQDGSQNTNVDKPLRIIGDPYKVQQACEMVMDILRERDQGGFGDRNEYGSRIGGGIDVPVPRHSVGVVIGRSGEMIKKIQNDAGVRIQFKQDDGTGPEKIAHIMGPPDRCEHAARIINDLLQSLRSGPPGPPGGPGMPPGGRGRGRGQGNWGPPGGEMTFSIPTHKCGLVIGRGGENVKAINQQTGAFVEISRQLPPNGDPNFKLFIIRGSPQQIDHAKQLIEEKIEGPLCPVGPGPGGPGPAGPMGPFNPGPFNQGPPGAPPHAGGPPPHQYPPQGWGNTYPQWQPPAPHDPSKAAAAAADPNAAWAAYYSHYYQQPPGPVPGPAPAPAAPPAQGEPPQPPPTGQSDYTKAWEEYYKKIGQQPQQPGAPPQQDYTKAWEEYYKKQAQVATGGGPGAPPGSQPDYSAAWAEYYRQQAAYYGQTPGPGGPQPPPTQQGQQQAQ
As to the kind of experiment: co-IP; endogenous KSRP precipitated with anti-KSRP and Protein A/G Sepharose; blotted with anti-Ago2.

Sequences of proteins named here, by UniProt entry; tags and fusion partners are left off.
UniProt Q9UKV8: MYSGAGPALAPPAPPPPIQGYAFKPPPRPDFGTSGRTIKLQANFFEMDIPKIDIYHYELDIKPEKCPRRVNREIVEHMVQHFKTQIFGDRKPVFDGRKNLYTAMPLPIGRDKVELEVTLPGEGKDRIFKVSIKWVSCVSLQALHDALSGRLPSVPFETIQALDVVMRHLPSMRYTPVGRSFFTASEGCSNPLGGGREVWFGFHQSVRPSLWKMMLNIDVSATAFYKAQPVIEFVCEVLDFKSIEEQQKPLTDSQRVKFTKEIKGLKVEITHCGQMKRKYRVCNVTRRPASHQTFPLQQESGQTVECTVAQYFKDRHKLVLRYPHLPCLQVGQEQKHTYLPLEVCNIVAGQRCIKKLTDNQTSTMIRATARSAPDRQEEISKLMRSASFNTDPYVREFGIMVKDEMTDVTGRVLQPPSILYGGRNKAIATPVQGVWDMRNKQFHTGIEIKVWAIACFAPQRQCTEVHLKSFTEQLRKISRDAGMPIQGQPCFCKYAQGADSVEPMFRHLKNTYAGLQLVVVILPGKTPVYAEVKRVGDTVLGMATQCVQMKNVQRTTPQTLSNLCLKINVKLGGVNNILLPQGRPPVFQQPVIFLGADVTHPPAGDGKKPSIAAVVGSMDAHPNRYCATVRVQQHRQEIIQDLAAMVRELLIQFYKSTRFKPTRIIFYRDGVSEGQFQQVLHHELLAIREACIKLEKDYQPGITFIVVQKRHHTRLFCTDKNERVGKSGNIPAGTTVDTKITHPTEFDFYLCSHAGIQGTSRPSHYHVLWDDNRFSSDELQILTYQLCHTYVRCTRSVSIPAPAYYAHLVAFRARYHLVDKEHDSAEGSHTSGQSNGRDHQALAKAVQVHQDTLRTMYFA

Results are given in words; binding and its absence hold for the method and conditions named. Binding seen in cells or lysates may run through a third protein.

Take “Argonaute 2 (Ago2) (from UniProt Q9UKV8 1-859)”: the binding entry is recorded as “no binding”.

The record behind these values is paper PMC3174171.
